In patent US8455444B2, “CDH3 peptide and medicinal agent comprising the same” (Oncotherapy Science, Inc., priority 2007, dated 2013):
“Also recorded” adds a separate entry of the source. Part of at least one peptide drawing is inferred or uncertain, most often the ends. Where a SMILES comes first, the peptide text is derived from it.

System: CDH3 peptide-pulsed BM-DCs
Experiment: IFN-γ ELISPOT assay of killer T cells from immunized HLA-A2 transgenic mice
Assay type: cell-based

CC[C@H](C)[C@H](NC(=O)[C@@H](NC(=O)[C@@H](N)Cc1ccccc1)[C@@H](C)CC)C(=O)N[C@@H](CCC(=O)O)C(=O)N[C@@H](CC(N)=O)C(=O)N[C@@H](CC(C)C)C(=O)N[C@@H](CCCCN)C(=O)N[C@@H](C)C(=O)N[C@@H](C)C(=O)O [CDH3-7, FIIENLKAA] (H-FIIENLKAA-OH)
IFN-γ spots in response to BM-DCs pulsed with the peptide (CD4-negative spleen cells of mice immunized with peptide-pulsed BM-DCs, E/T ratio 10:1): 79.3±3.2 spots/well | CDH3 specific killer T cell immune response (IFN-γ production) (killer T cells induced with the peptide, pulsed vs unpulsed BM-DCs): CDH3 specific killer T cell immune response was observed; also recorded: specifically recognized BM-DCs pulsed with CDH3 peptides and produced IFN-γ
